The other results are listed elsewhere or left out.
Legend:
Assay in all cases: glycan array binding signal (z-score within array); higher = stronger binding
Settings in all cases: glycan notation: IUPAC condensed, linker removed
[1] = target: Neu5Ac(a2-6)GlcNAc(b1-4)GlcNAc(b1-4)GlcNAc
Outline: (§1)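 From the Consortium for Functional Glycomics database, 3228 arrays were curated, keeping only those whose protein sequence was available. Binding is given as a within-array Z-score averaged across arrays sharing a protein sequence and across linkers. Negative Z-scores can be read as non-binding.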

Neu5Ac(a2-8)Neu5Ac = target: Neu5Ac(a2-8)Neu5Ac
Outline: as §1

[2] = target: Neu5Ac(a2-8)Neu5Ac(a2-3)Gal(b1-3)GalNAc(b1-4)[Neu5Ac(a2-3)]Gal(b1-4)Glc
Outline: as §1

[3] = target: Neu5Ac(a2-8)Neu5Ac(a2-3)Gal(b1-3)GalNAc(b1-4)[Neu5Ac(a2-8)Neu5Ac(a2-3)]Gal(b1-4)Glc
Outline: as §1

[4] = target: Neu5Ac(a2-8)Neu5Ac(a2-3)Gal(b1-4)Glc
Outline: as §1

[5] = target: Neu5Ac(a2-8)Neu5Ac(a2-3)Gal(b1-4)GlcNAc
Outline: as §1

[6] = target: Neu5Ac(a2-8)Neu5Ac(a2-3)[Gal(b1-3)GalNAc(b1-4)]Gal(b1-4)Glc
Outline: as §1

[7] = target: Neu5Ac(a2-8)Neu5Ac(a2-3)[GalNAc(b1-4)]Gal(b1-4)Glc
Outline: as §1

[8] = target: Neu5Ac(a2-8)Neu5Ac(a2-8)Neu5Ac
Outline: as §1

[9] = target: Neu5Ac(a2-8)Neu5Ac(a2-8)Neu5Ac(a2-3)Gal(b1-4)Glc
Outline: as §1

[10] = target: Neu5Ac(a2-8)Neu5Ac(a2-8)Neu5Ac(a2-3)[Gal(b1-3)GalNAc(b1-4)]Gal(b1-4)Glc
Outline: as §1

[11] = target: Neu5Ac(a2-8)Neu5Ac(a2-8)Neu5Ac(a2-3)[GalNAc(b1-4)]Gal(b1-4)Glc
Outline: as §1

[12] = target: Neu5Ac(a2-8)Neu5Ac(a2-8)Neu5Ac(a2-8)Neu5Ac(a2-3)[GalNAc(b1-4)]Gal(b1-4)Glc
Outline: as §1

[13] = target: Neu5Ac(a2-8)Neu5Gc(a2-3)Gal(b1-4)GlcNAc
Outline: as §1

[14] = target: Neu5Ac(b2-6)Gal(b1-4)GlcNAc
Outline: as §1

Neu5Ac(b2-6)GalNAc = target: Neu5Ac(b2-6)GalNAc
Outline: as §1

[15] = target: Neu5Ac9Ac(a2-3)Gal(b1-3)GlcNAc
Outline: as §1

[16] = target: Neu5Ac9Ac(a2-3)Gal(b1-4)GlcNAc
Outline: as §1

[17] = target: Neu5Ac9Ac(a2-6)Gal(b1-4)GlcNAc
Outline: as §1

[18] = target: Neu5Gc(a2-3)Gal(b1-3)GlcNAc
Outline: as §1

[19] = target: Neu5Gc(a2-3)Gal(b1-3)[Fuc(a1-4)]GlcNAc
Outline: as §1

Neu5Gc(a2-3)Gal(b1-4)Glc = target: Neu5Gc(a2-3)Gal(b1-4)Glc
Outline: as §1

[20] = target: Neu5Gc(a2-3)Gal(b1-4)GlcNAc
Outline: as §1

[21] = target: Neu5Gc(a2-3)Gal(b1-4)GlcNAc(b1-3)Gal(b1-4)GlcNAc(b1-2)Man(a1-3)[Neu5Gc(a2-3)Gal(b1-4)GlcNAc(b1-3)Gal(b1-4)GlcNAc(b1-2)Man(a1-6)]Man(b1-4)GlcNAc(b1-4)GlcNAc
Outline: as §1

[22] = target: Neu5Gc(a2-3)Gal(b1-4)[Fuc(a1-3)]GlcNAc
Outline: as §1

[23] = target: Neu5Gc(a2-6)Gal(b1-4)GlcNAc
Outline: as §1

Neu5Gc(a2-6)GalNAc = target: Neu5Gc(a2-6)GalNAc
Outline: as §1

[24] = target: Neu5Gc(a2-8)Neu5Ac(a2-3)Gal(b1-4)GlcNAc
Outline: as §1

[25] = target: Neu5Gc(a2-8)Neu5Gc(a2-3)Gal(b1-4)GlcNAc
Outline: as §1

[26] = target: Neu5Gc(a2-8)Neu5Gc(a2-3)Gal(b1-4)GlcNAc(b1-3)Gal(b1-4)GlcNAc
Outline: as §1

[27] = target: Neu5Gc(a2-8)Neu5Gc(a2-6)Gal(b1-4)GlcNAc
Outline: as §1

[28] = target: Neu5Gc(b2-6)Gal(b1-4)GlcNAc
Outline: as §1

B1: GS13599A-bth-520-23-520 (Bacteroides thetaiotaomicron) (protein)
chain: SEDTMDRINKDHDHTTSVASRFILADVITSTAFSNASGDINTYASSYIEYEVGVDNQLYYAEVRENEPSSSSTFNNSWNGIYSSLKNARIIIDQCGEGGRDHGNDVTRGMAEVMAAYNCALIADFFGDAPCSQAALVDEKGSPVYMTPKMDTQQEIYTQIISYLDDAIANLQKEDLADVTEQDFLYAGDADKWLKFAYGLKARYTMRLINRSSNKSADYEKVLDYVSKSFTSADDQAAFDIYDSNNINPFYGFYNSRAGFGASTSLGTKLLAYNDPRANRAFFTPIVDKKRSQVAANDPSLVPAPNGSPDQSTSKYGISAFVYAKTAPTLLMSYHELMFLKAEALCRLNRDAEDALKEAVVAGLLNAENSISIAIKELGSGLNTNSSEVITETSAGKYFDDVVKAKYAANPLQETMIQKYLAMWGASGEATETYNDFRRMKGLNENFITLTNPNNSSKFPLRYPYGNSDTAANPEVKAAYGNGDYVYSEPVWWAGGSR
glycan array binding signal (z-score) [1]: -0.33
glycan array binding signal (z-score) (Neu5Ac(a2-8)Neu5Ac): -0.118
glycan array binding signal (z-score) [2]: 0.429
glycan array binding signal (z-score) [3]: 2.19
glycan array binding signal (z-score) [4]: -1.46
glycan array binding signal (z-score) [5]: -0.704
glycan array binding signal (z-score) [6]: -1.45
glycan array binding signal (z-score) [7]: 0.221
glycan array binding signal (z-score) [8]: -0.04
glycan array binding signal (z-score) [9]: 0.242
glycan array binding signal (z-score) [10]: 1.71
glycan array binding signal (z-score) [11]: -1.68
glycan array binding signal (z-score) [12]: 0.261
glycan array binding signal (z-score) [13]: -0.895
glycan array binding signal (z-score) [14]: -0.098
glycan array binding signal (z-score) (Neu5Ac(b2-6)GalNAc): -0.02
glycan array binding signal (z-score) [15]: -1.21
glycan array binding signal (z-score) [16]: -0.377
glycan array binding signal (z-score) [17]: -0.821
glycan array binding signal (z-score) [18]: -0.045
glycan array binding signal (z-score) [19]: 0.04
glycan array binding signal (z-score) (Neu5Gc(a2-3)Gal(b1-4)Glc): -1.63
glycan array binding signal (z-score) [20]: -0.966
glycan array binding signal (z-score) [21]: 2.04
glycan array binding signal (z-score) [22]: -0.275
glycan array binding signal (z-score) [23]: -0.407
glycan array binding signal (z-score) (Neu5Gc(a2-6)GalNAc): -0.635
glycan array binding signal (z-score) [24]: -0.56
glycan array binding signal (z-score) [25]: -1.13
glycan array binding signal (z-score) [26]: -0.631
glycan array binding signal (z-score) [27]: -1.24
glycan array binding signal (z-score) [28]: -0.127
